Assay results: the supplement of paper PMC11546906
Counter-ions that a name gives are not always drawn. This is one part of the list. This data set is noisy: repeats of one test often differ as much as different tests do.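 FDA-approved drugs were each paired with colistin at one-eighth its MIC and screened against a multidrug-resistant, mcr-1-positive clinical E. coli isolate, with OD600 read after 24 h. Drug-free bacteria served as growth control, plain broth as blank. Combinations were active if OD600 dropped below 0.2.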

System: Escherichia coli 42 (mcr-1-positive clinical isolate)
Experiment: OD600 after 24 h growth with compound plus colistin (absorbance units (OD600)); higher = more bacterial growth (less inhibition)
Conditions: first compound 25 µM; colistin concentration 0.5 ug/mL; incubation time 24 h; 37 °C

Compound | OD600
OC[C@H]1O[C@@H](O[C@@H]2[C@@H](CO)OC(O)(CO)[C@H]2O)[C@H](O)[C@@H](O)[C@H]1O (mixture of isomers) [Lactulose] + CCC(C)CCCC(=O)N[C@@H](CCN)C(=O)N[C@H](C(=O)N[C@@H](CCN)C(=O)N[C@H]1CCNC(=O)[C@H]([C@@H](C)O)NC(=O)[C@H](CCN)NC(=O)[C@H](CCN)NC(=O)[C@H](CC(C)C)NC(=O)[C@@H](CC(C)C)NC(=O)[C@H](CCN)NC1=O)[C@@H](C)O [colistin] | inactive: 1.13
CC(=O)NC[C@H]1CN(c2ccc(N3CCOCC3)c(F)c2)C(=O)O1 [Linezolid] + CCC(C)CCCC(=O)N[C@@H](CCN)C(=O)N[C@H](C(=O)N[C@@H](CCN)C(=O)N[C@H]1CCNC(=O)[C@H]([C@@H](C)O)NC(=O)[C@H](CCN)NC(=O)[C@H](CCN)NC(=O)[C@H](CC(C)C)NC(=O)[C@@H](CC(C)C)NC(=O)[C@H](CCN)NC1=O)[C@@H](C)O [colistin] | inactive: 1.07
COc1cc(Nc2c(C#N)cnc3cc(OCCCN4CCN(C)CC4)c(OC)cc23)c(Cl)cc1Cl [Bosutinib] + CCC(C)CCCC(=O)N[C@@H](CCN)C(=O)N[C@H](C(=O)N[C@@H](CCN)C(=O)N[C@H]1CCNC(=O)[C@H]([C@@H](C)O)NC(=O)[C@H](CCN)NC(=O)[C@H](CCN)NC(=O)[C@H](CC(C)C)NC(=O)[C@@H](CC(C)C)NC(=O)[C@H](CCN)NC1=O)[C@@H](C)O [colistin] | active: 0.035
CC1(C)[C@H](C(=O)O)N2C(=O)C[C@H]2S1(=O)=O [Sulbactam] + CCC(C)CCCC(=O)N[C@@H](CCN)C(=O)N[C@H](C(=O)N[C@@H](CCN)C(=O)N[C@H]1CCNC(=O)[C@H]([C@@H](C)O)NC(=O)[C@H](CCN)NC(=O)[C@H](CCN)NC(=O)[C@H](CC(C)C)NC(=O)[C@@H](CC(C)C)NC(=O)[C@H](CCN)NC1=O)[C@@H](C)O [colistin] | inactive: 1.08
COc1ccccc1OCC(O)CN1CCN(CC(=O)Nc2c(C)cccc2C)CC1 (configuration not stated) [Ranolazine dihydrochloride] + CCC(C)CCCC(=O)N[C@@H](CCN)C(=O)N[C@H](C(=O)N[C@@H](CCN)C(=O)N[C@H]1CCNC(=O)[C@H]([C@@H](C)O)NC(=O)[C@H](CCN)NC(=O)[C@H](CCN)NC(=O)[C@H](CC(C)C)NC(=O)[C@@H](CC(C)C)NC(=O)[C@H](CCN)NC1=O)[C@@H](C)O [colistin] | inactive: 1.07
CC1(C)S[C@@H]2[C@H](NC(=O)[C@H](N)c3ccc(O)cc3)C(=O)N2[C@H]1C(=O)O [Amoxicillin trihydrate] + CCC(C)CCCC(=O)N[C@@H](CCN)C(=O)N[C@H](C(=O)N[C@@H](CCN)C(=O)N[C@H]1CCNC(=O)[C@H]([C@@H](C)O)NC(=O)[C@H](CCN)NC(=O)[C@H](CCN)NC(=O)[C@H](CC(C)C)NC(=O)[C@@H](CC(C)C)NC(=O)[C@H](CCN)NC1=O)[C@@H](C)O [colistin] | inactive: 1.07
Nc1ccc(O)c(C(=O)O)c1 [5-Aminosalicylic Acid] + CCC(C)CCCC(=O)N[C@@H](CCN)C(=O)N[C@H](C(=O)N[C@@H](CCN)C(=O)N[C@H]1CCNC(=O)[C@H]([C@@H](C)O)NC(=O)[C@H](CCN)NC(=O)[C@H](CCN)NC(=O)[C@H](CC(C)C)NC(=O)[C@@H](CC(C)C)NC(=O)[C@H](CCN)NC1=O)[C@@H](C)O [colistin] | inactive: 1.13
Clc1ccc(C(c2ccccc2Cl)C(Cl)Cl)cc1 (configuration not stated) [Mitotane] + CCC(C)CCCC(=O)N[C@@H](CCN)C(=O)N[C@H](C(=O)N[C@@H](CCN)C(=O)N[C@H]1CCNC(=O)[C@H]([C@@H](C)O)NC(=O)[C@H](CCN)NC(=O)[C@H](CCN)NC(=O)[C@H](CC(C)C)NC(=O)[C@@H](CC(C)C)NC(=O)[C@H](CCN)NC1=O)[C@@H](C)O [colistin] | inactive: 1.01
CC(C)(CO)c1cc2cc(NC(=O)C3(c4ccc5c(c4)OC(F)(F)O5)CC3)c(F)cc2n1C[C@@H](O)CO [Tezacaftor] + CCC(C)CCCC(=O)N[C@@H](CCN)C(=O)N[C@H](C(=O)N[C@@H](CCN)C(=O)N[C@H]1CCNC(=O)[C@H]([C@@H](C)O)NC(=O)[C@H](CCN)NC(=O)[C@H](CCN)NC(=O)[C@H](CC(C)C)NC(=O)[C@@H](CC(C)C)NC(=O)[C@H](CCN)NC1=O)[C@@H](C)O [colistin] | inactive: 0.999
CC[C@@H]([C@H](C)O)n1ncn(-c2ccc(N3CCN(c4ccc(OC[C@@H]5CO[C@@](Cn6cncn6)(c6ccc(F)cc6F)C5)cc4)CC3)cc2)c1=O [Posaconazole] + CCC(C)CCCC(=O)N[C@@H](CCN)C(=O)N[C@H](C(=O)N[C@@H](CCN)C(=O)N[C@H]1CCNC(=O)[C@H]([C@@H](C)O)NC(=O)[C@H](CCN)NC(=O)[C@H](CCN)NC(=O)[C@H](CC(C)C)NC(=O)[C@@H](CC(C)C)NC(=O)[C@H](CCN)NC1=O)[C@@H](C)O [colistin] | inactive: 1.12
Nc1ccc(C(=O)O)c(O)c1 [4-Aminosalicylic acid] + CCC(C)CCCC(=O)N[C@@H](CCN)C(=O)N[C@H](C(=O)N[C@@H](CCN)C(=O)N[C@H]1CCNC(=O)[C@H]([C@@H](C)O)NC(=O)[C@H](CCN)NC(=O)[C@H](CCN)NC(=O)[C@H](CC(C)C)NC(=O)[C@@H](CC(C)C)NC(=O)[C@H](CCN)NC1=O)[C@@H](C)O [colistin] | inactive: 0.87
CC(=O)OCC[N+](C)(C)C [Acetylcholine chloride] + CCC(C)CCCC(=O)N[C@@H](CCN)C(=O)N[C@H](C(=O)N[C@@H](CCN)C(=O)N[C@H]1CCNC(=O)[C@H]([C@@H](C)O)NC(=O)[C@H](CCN)NC(=O)[C@H](CCN)NC(=O)[C@H](CC(C)C)NC(=O)[C@@H](CC(C)C)NC(=O)[C@H](CCN)NC1=O)[C@@H](C)O [colistin] | inactive: 1.14
CC(C)N1CCN(c2ccc(OCC3COC(Cn4cncn4)(c4ccc(Cl)cc4Cl)O3)cc2)CC1 (configuration not stated) [Terconazole] + CCC(C)CCCC(=O)N[C@@H](CCN)C(=O)N[C@H](C(=O)N[C@@H](CCN)C(=O)N[C@H]1CCNC(=O)[C@H]([C@@H](C)O)NC(=O)[C@H](CCN)NC(=O)[C@H](CCN)NC(=O)[C@H](CC(C)C)NC(=O)[C@@H](CC(C)C)NC(=O)[C@H](CCN)NC1=O)[C@@H](C)O [colistin] | inactive: 1.01
CC1(C)CCC(CN2CCN(c3ccc(C(=O)NS(=O)(=O)c4ccc(NCC5CCOCC5)c([N+](=O)[O-])c4)c(Oc4cnc5[nH]ccc5c4)c3)CC2)=C(c2ccc(Cl)cc2)C1 [Venetoclax] + CCC(C)CCCC(=O)N[C@@H](CCN)C(=O)N[C@H](C(=O)N[C@@H](CCN)C(=O)N[C@H]1CCNC(=O)[C@H]([C@@H](C)O)NC(=O)[C@H](CCN)NC(=O)[C@H](CCN)NC(=O)[C@H](CC(C)C)NC(=O)[C@@H](CC(C)C)NC(=O)[C@H](CCN)NC1=O)[C@@H](C)O [colistin] | inactive: 0.948
COCCCOc1ccnc(C[S+]([O-])c2nc3ccccc3[nH]2)c1C (configuration not stated) [Rabeprazole sodium] + CCC(C)CCCC(=O)N[C@@H](CCN)C(=O)N[C@H](C(=O)N[C@@H](CCN)C(=O)N[C@H]1CCNC(=O)[C@H]([C@@H](C)O)NC(=O)[C@H](CCN)NC(=O)[C@H](CCN)NC(=O)[C@H](CC(C)C)NC(=O)[C@@H](CC(C)C)NC(=O)[C@H](CCN)NC1=O)[C@@H](C)O [colistin] | inactive: 0.873
CCCN[C@H]1CCc2nc(N)sc2C1 [Pramipexole dihydrochloride hydrate] + CCC(C)CCCC(=O)N[C@@H](CCN)C(=O)N[C@H](C(=O)N[C@@H](CCN)C(=O)N[C@H]1CCNC(=O)[C@H]([C@@H](C)O)NC(=O)[C@H](CCN)NC(=O)[C@H](CCN)NC(=O)[C@H](CC(C)C)NC(=O)[C@@H](CC(C)C)NC(=O)[C@H](CCN)NC1=O)[C@@H](C)O [colistin] | inactive: 1.06
CCCCCCCCCC(=O)N[C@@H](Cc1c[nH]c2ccccc12)C(=O)N[C@H](CC(N)=O)C(=O)N[C@@H](CC(=O)O)C(=O)N[C@@H]1C(=O)NCC(=O)N[C@@H](CCCN)C(=O)N[C@@H](CC(=O)O)C(=O)N[C@H](C)C(=O)N[C@@H](CC(=O)O)C(=O)NCC(=O)N[C@H](CO)C(=O)N[C@@H]([C@H](C)CC(=O)O)C(=O)N[C@@H](CC(=O)c2ccccc2N)C(=O)O[C@@H]1C [Daptomycin] + CCC(C)CCCC(=O)N[C@@H](CCN)C(=O)N[C@H](C(=O)N[C@@H](CCN)C(=O)N[C@H]1CCNC(=O)[C@H]([C@@H](C)O)NC(=O)[C@H](CCN)NC(=O)[C@H](CCN)NC(=O)[C@H](CC(C)C)NC(=O)[C@@H](CC(C)C)NC(=O)[C@H](CCN)NC1=O)[C@@H](C)O [colistin] | inactive: 0.891

Rewritten with tabs: part of the list above
Compound	OD600
OC[C@H]1O[C@@H](O[C@@H]2[C@@H](CO)OC(O)(CO)[C@H]2O)[C@H](O)[C@@H](O)[C@H]1O (mixture of isomers) [Lactulose] + CCC(C)CCCC(=O)N[C@@H](CCN)C(=O)N[C@H](C(=O)N[C@@H](CCN)C(=O)N[C@H]1CCNC(=O)[C@H]([C@@H](C)O)NC(=O)[C@H](CCN)NC(=O)[C@H](CCN)NC(=O)[C@H](CC(C)C)NC(=O)[C@@H](CC(C)C)NC(=O)[C@H](CCN)NC1=O)[C@@H](C)O [colistin]	inactive: 1.13
CC(=O)OCC[N+](C)(C)C [Acetylcholine chloride] + CCC(C)CCCC(=O)N[C@@H](CCN)C(=O)N[C@H](C(=O)N[C@@H](CCN)C(=O)N[C@H]1CCNC(=O)[C@H]([C@@H](C)O)NC(=O)[C@H](CCN)NC(=O)[C@H](CCN)NC(=O)[C@H](CC(C)C)NC(=O)[C@@H](CC(C)C)NC(=O)[C@H](CCN)NC1=O)[C@@H](C)O [colistin]	inactive: 1.14
